Test results reported in US20200339670A1.
No constants are given. Whether binding was seen depends on the method and setting. Some entries that bind do so weakly or less than the wild type.

By UniProt entry, the sequences of proteins in these tests, tags left out. Residues count along the entry.
UniProt P05067, residues 672-713: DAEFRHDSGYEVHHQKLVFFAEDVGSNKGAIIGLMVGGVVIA
UniProt Q9ULZ3: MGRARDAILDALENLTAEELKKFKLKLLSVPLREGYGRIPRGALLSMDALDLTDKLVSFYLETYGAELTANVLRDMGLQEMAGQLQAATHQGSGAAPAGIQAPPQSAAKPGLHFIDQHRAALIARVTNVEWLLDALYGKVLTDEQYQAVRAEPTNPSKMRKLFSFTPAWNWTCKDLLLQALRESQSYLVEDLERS

Columns and labels:
[1] = molecular target: Aβ in brains of Alzheimer patients (human) (UniProt P05067); assay: immunoprecipitation from human brain homogenates
[2] = molecular target: Aβ in brains of Alzheimer patients (human) (UniProt P05067); assay: immunohistochemistry of brain sections of AD cases
[3] = molecular target: Aβ in brains of Alzheimer patients (human) (UniProt P05067); assay: immunoprecipitation of ASC, Western blot detection of Aβ

binding [1]: binds
binding [2]: binds
binding [3]: binds
Substance: ASC (ASC specks) in brains of Alzheimer patients (from UniProt Q9ULZ3 1-195)
